The source of these data is the supplement of paper PMC8732350.

“And” between values parts separate entries of the source, which are not always exact repeats. Equal entries are not always repeated. Structures can show the parent of a compound that is named as a salt. The list shows a part of the results. This data set is noisy: repeats of one test often differ as much as different tests do.

This experiment deals with A549. The experiment in a line: surface PD-L1 immunofluorescence intensity relative to IFN-gamma-only control (ratio); higher = more PD-L1 expression. The following applies: 10 µM; exposure time 24 h; IFN-gamma 100 ng/mL.
On to `CC(C)(C)NC[C@H](O)COc1cccc2c1CCCC2=O` [(-) -Levobunolol hydrochloride], for which the “surface PD-L1 immunofluorescence intensity” value was 0.914.

For `C[N+](C)(C)CCOC(N)=O` [Carbachol], the “surface PD-L1 immunofluorescence intensity” value is 1.06.

As to `COc1ccc(-c2oc3cc(OC)ccc3c2C(=O)c2ccc(C#N)cc2)cc1`, the “surface PD-L1 immunofluorescence intensity” value was 0.952.

On to `C=CCNc1ncnc2ccc(Br)cc12`, for which the “surface PD-L1 immunofluorescence intensity” value was determined as 1.01.

For the molecule `OCC(CO)N[C@H]1C[C@](O)(CO)[C@@H](O)[C@H](O)[C@H]1O` [Voglibose], the “surface PD-L1 immunofluorescence intensity” value stood at 1.05.

For the molecule `Cc1ccc(Nc2nccc(N(C)c3ccc4c(C)n(C)nc4c3)n2)cc1S(N)(=O)=O` [Pazopanib], the “surface PD-L1 immunofluorescence intensity” value amounted to 1.08.

In the case of `CC(=Nc1ccccc1N)c1c(C)cc(=O)n(O)c1O`, the “surface PD-L1 immunofluorescence intensity” value was found to be 1.02.

Consider `CCc1ccc(/C=C2/SC(=S)NC2=O)cc1`, for which the “surface PD-L1 immunofluorescence intensity” value stood at 0.931.

In the case of `CCN(CC)CCNC(=O)c1cc(Br)c(N)cc1OC` [Bromopride], the “surface PD-L1 immunofluorescence intensity” value amounted to 1.06.

With `CCCCC(=O)N(Cc1ccc(-c2ccccc2-c2nnn[nH]2)cc1)[C@H](C(=O)O)C(C)C` [Valsartan (Diovan)], the “surface PD-L1 immunofluorescence intensity” value amounted to 0.899.

Turning to `OC(CCN1CCCCC1)(c1ccccc1)c1ccccc1` [Pridinol methanesulfonate salt], the “surface PD-L1 immunofluorescence intensity” value came to 0.962.

Turning to `CC(=O)[C@H]1[C@H](C#N)C[C@H]2[C@@H]3CC=C4C[C@@H](O)CC[C@]4(C)[C@H]3CC[C@@]21C` [Pregnenolone-16(alpha)-carbonitrile], the “surface PD-L1 immunofluorescence intensity” value is 1.

Consider `O=c1cc(N2CCOCC2)oc2c(-c3ccccc3)cccc12`, for which the “surface PD-L1 immunofluorescence intensity” value was 0.927 and 0.888.

As for `O=C(O)c1cc(=O)c2ccccc2[nH]1` [Kynurenic acid], the “surface PD-L1 immunofluorescence intensity” value turned out to be 1.05.

Take `Cc1c(C(=O)Nc2ccc(N3C[C@@H](C)O[C@@H](C)C3)nc2)cccc1-c1ccc(OC(F)(F)F)cc1` [LDE225 (NVP-LDE225, Erismodegib)]: the “surface PD-L1 immunofluorescence intensity” value was 1.12.

As to `CC(C)NNC(=O)c1ccncc1` [Iproniazide phosphate], the “surface PD-L1 immunofluorescence intensity” value is 0.955.

As for `Cc1ccc(Sc2cncc3sc(C(N)=O)cc23)cc1`, the “surface PD-L1 immunofluorescence intensity” value is 0.943.

Take `CC(C)c1nc(CN(C)C(=O)N[C@@H](CCN2CCOCC2)C(=O)N[C@H](CC[C@H](Cc2ccccc2)NC(=O)OCc2cncs2)Cc2ccccc2)cs1` [Cobicistat (GS-9350)]: the “surface PD-L1 immunofluorescence intensity” value is 0.994.

`C#C[C@]1(O)CC[C@H]2[C@@H]3CCC4=Cc5oncc5C[C@]4(C)[C@H]3CC[C@@]21C` [Danazol]: the “surface PD-L1 immunofluorescence intensity” value came to 0.949.

Consider `Cc1cccc(-c2nn3c(c2-c2ccnc4ccc(C(N)=O)cc24)CCC3)n1`, for which the “surface PD-L1 immunofluorescence intensity” value was 1.05.

Consider `O=C(Nc1cccnc1)N1CCC(Cc2cccc(Oc3ccc(C(F)(F)F)cn3)c2)CC1`, for which the “surface PD-L1 immunofluorescence intensity” value was determined as 1.05.

Regarding `O=C(Nc1ccc([N+](=O)[O-])cc1Cl)c1cc(Cl)ccc1O` [Niclosamide], the “surface PD-L1 immunofluorescence intensity” value is 0.9.

As for `CCOc1ccc(Cc2nccc3cc(OCC)c(OCC)cc23)cc1OCC` [Ethaverine hydrochloride], the “surface PD-L1 immunofluorescence intensity” value was 0.984.
